# Values joined by “and” are separate entries in the source; they are usually repeats but may differ in a detail not shown here. Identical values can stand only once. The campaign covered roughly 310,000 compounds. About 17,000 (5.5%) were called active. This list was built around the results that the source calls inconclusive (neither active nor inactive); the mix of calls is not that of the screen. The call rests on the fitted dose curve; in most records, active means well fitted inhibition curve with a large enough effect; inconclusive means small, poorly fitted or top-dose-only effect, or effect the other way; inactive means no such curve, though single readings can be large or run the other way. Where the call is inconclusive, the potency comes from a doubtful curve fit. The source holds several records for some structures; these can differ, active in one and inactive in another.
# By UniProt entry, the sequences of proteins in these tests, tags left out. Where a name states a change or a piece, a line headed by the entry shows the natural chain unless it says otherwise.
# UniProt P51450: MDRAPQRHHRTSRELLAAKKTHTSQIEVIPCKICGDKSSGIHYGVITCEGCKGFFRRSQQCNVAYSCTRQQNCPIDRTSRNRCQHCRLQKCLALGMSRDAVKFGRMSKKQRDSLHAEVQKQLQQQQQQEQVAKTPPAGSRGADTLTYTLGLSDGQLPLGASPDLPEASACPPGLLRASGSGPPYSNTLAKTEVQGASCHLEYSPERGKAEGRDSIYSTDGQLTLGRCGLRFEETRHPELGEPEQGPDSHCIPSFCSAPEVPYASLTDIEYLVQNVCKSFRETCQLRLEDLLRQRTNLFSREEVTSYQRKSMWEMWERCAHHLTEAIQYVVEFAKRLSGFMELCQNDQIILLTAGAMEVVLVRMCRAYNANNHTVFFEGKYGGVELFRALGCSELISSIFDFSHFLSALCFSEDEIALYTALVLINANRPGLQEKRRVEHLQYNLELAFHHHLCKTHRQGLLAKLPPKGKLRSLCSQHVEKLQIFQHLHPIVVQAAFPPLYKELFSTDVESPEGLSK
# Target: Nuclear receptor ROR-gamma (Mus musculus) (UniProt P51450)
# Experiment: qHTS for inhibitors of ROR gamma transcriptional activity; further: nearly all actives have a fitted effect of over 60% in size
# Settings: Drosophila S2 Gal4-RORgamma UAS-luciferase reporter, 20 h; activity change, negative = inhibition: at 53.6 µM (top of the series)
# Procedure, shortened: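 Stable Schneider cell line, Gal4 DNA-binding domain fused to ROR gamma, UAS-luciferase. Cmpd 1 hr RT → CuSO4 700 uM final → 20 hr RT → luciferase reagent 10 min → luminescence.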
# On the % scale 0 is the no-effect control and ±100 the full control effect; potency means the concentration at half of the fitted maximal effect.
SMILES,"activity change, negative = inhibition",Potency
Cn1cc(C(c2ccccc2OCC(=O)O)c2cn(C)c3ccccc23)c2ccccc21,inactive: 2.86%,–
O=C(CSc1nnc(-c2ccccc2Br)o1)N1CCOCC1,–,"inconclusive: 11.2 µM [inhibitor, single point]"
COc1ccc(C2CC(c3cccs3)=NN2c2nc(-c3ccccc3)cs2)cc1OC (stereo unspecified),–,"inconclusive: 11.2 µM [inhibitor, single point]"
CC1=NN(C(=O)COc2ccc(C)c(C)c2)C(O)(c2ccccc2)C1 (stereo unspecified),–,active: 10 µM
Cc1cc(-c2ccc(N3C(=O)CCC3=O)c(C)c2)ccc1N1C(=O)CCC1=O,–,"inconclusive: 3.16 µM [inhibitor, single point]"
CCCc1cc(Nc2cccc(OC)c2)n2ncnc2n1,–,"inconclusive: 35.5 µM [inhibitor, single point]"
O=C(Nc1cc(Sc2nc3ccccc3s2)cc([N+](=O)[O-])c1)c1cccc(F)c1F,–,"inconclusive: 7.08 µM [activator, partial curve]"
CCn1nc(C)cc1C(=O)Sc1cccc(Br)c1,–,"inconclusive: 35.5 µM [inhibitor, single point]"
CCOC(=O)Nc1ccc2c(CN3CCN(S(=O)(=O)c4ccccc4)CC3)cc(=O)oc2c1,–,"inconclusive: 0.355 µM [activator, single point]"
CCn1c2ccccc2c2n[nH]c(=S)nc21,–,active: 3.98 µM
Cc1c(CCOC(=O)CC23CC4CC(CC(C)(C4)C2)C3)sc[n+]1CC(=O)c1ccccc1,inactive: 17.6%,–
O=C(O)CCC(=O)NNc1ncnc2ccccc12,–,"inconclusive: 22.4 µM [inhibitor, single point]"
NC(=S)c1c(Cl)cc(C(F)(F)F)cc1Cl,inactive: -30%,–
COC(=O)c1cn(S(=O)(=O)c2ccccc2)c2ccccc12,inactive: -22.4%,–
Cc1cc(C)nc(N2C(=O)CC(C(C)c3ccccc3)C2=O)n1 (stereo unspecified),inactive: -17.8%,–
NC(=O)Cc1nc(-c2ccc(Br)cc2)cs1,–,"inconclusive: 11.2 µM [activator, partial curve]"
CCCCNC(=O)/C=C/c1cccs1,inactive: 44.2%,–
CN=c1scc(-c2ccccc2Br)n1/N=C/c1ccc[nH]1,–,"inconclusive: 35.5 µM [inhibitor, single point]"
Clc1ccccc1OCc1nc(-c2ccccn2)no1,–,"inconclusive: 35.5 µM [inhibitor, single point]"
COc1cc(C(=O)O/N=C2\C=CC(=O)C=C2C)cc(OC)c1OC,–,active: 7.08 µM
COc1ccc(-c2cnnc(N/N=C/c3ccc(C)o3)n2)cc1,–,active: 5.01 µM
CN1[C@@H]2CC[C@H]1CC(OC(c1ccccc1)c1ccccc1)C2 (stereo partly specified),–,inactive
Clc1ccc(-c2cc3ccccc3nc2N2CCOCC2)cc1,inactive: 10.1%,–
COc1cc2ccccc2cc1C(=O)Nc1nnc(-c2ccncc2)o1,–,active: 7.08 µM

SMILES,"activity change, negative = inhibition",Potency
Cc1ccc(CNc2oc(-c3ccco3)nc2S(=O)(=O)c2ccccc2)cc1,–,"inconclusive: 35.5 µM [activator, single point]"
COc1cc(C(CC(=O)N2CCCC2)c2c(OC)cc(OC)c3c(-c4ccccc4)cc(=O)oc23)cc(OC)c1OC (stereo unspecified),–,"inconclusive: 25.1 µM [activator, single point]"
CCCCn1c(SCc2nc(N)nc(Nc3ccccc3C)n2)nc2ccccc2c1=O,inactive: 0.736%,–
S=C(Nc1ccccc1Cl)N(CCN1CCCCC1)Cc1ccco1,–,"inconclusive: 31.6 µM [inhibitor, single point]"
COc1ccc(-c2nnc3n2N=C(c2ccc(OC)cc2OC)CS3)cc1,–,"inconclusive: 35.5 µM [activator, single point]"
O=C(NCCc1ccc2c(c1)OCCO2)c1ccccn1,inactive: -29.8%,–
S=C(NCCc1ccc(Cl)cc1)NCc1ccccc1,–,"inconclusive: 20 µM [inhibitor, partial curve, poor fit]"
CCc1cc(=O)n2[nH]c(-c3ccccc3)c(-c3ccccc3)c2n1,–,"inconclusive: 12.6 µM [inhibitor, partial curve, poor fit]"
COc1ccc(-c2noc(CCC(=O)NCCc3ccccc3)n2)cc1,inactive: 6.3%,–
C=CCNC(=O)CCc1nnc(C2(c3ccc(Cl)cc3)CCC2)o1,inactive: 30.5%,–
COc1cccc2sc(N(CCCN(C)C)C(=O)CCS(=O)(=O)c3ccccc3)nc12,–,active: 11.2 µM
O=C(Nc1cccc(S(=O)(=O)c2cccc(NC(=O)C3CC3)c2)c1)C1CC1,–,"inconclusive: 22.4 µM [activator, single point]"
CCOC(=O)c1sc(N/N=C/c2ccc(N(C)C)cc2)nc1C,–,"inconclusive: 35.5 µM [inhibitor, single point]"
Cc1cccc2nc(COc3ccc(Cl)c4cccnc34)cn12,inactive: -22.3%,–
O=C(CCN1CCC(c2ccccc2)C1)c1ccc2c(c1)OCCO2 (stereo unspecified),–,inactive and active: 7.08 µM
COc1ccc(-c2nnc(SCC(=O)NCC3CCCO3)o2)cc1 (stereo unspecified),–,active: 12.6 µM
Cc1cc(C)c(NC(=O)c2ccc(S(=O)(=O)N(C)C)cc2)c(C)n1,inactive: 12.9%,–
COc1ccc(CN2CN(C(C)C)CSC2=S)cc1,–,"inconclusive: 8.91 µM [inhibitor, partial curve]"
O=C(Nc1cccc(NC(=O)N2CCN(c3ccccc3)CC2)c1)N1CCN(c2ccccc2)CC1,–,"inconclusive: 12.6 µM [activator, partial curve]"
CCC1CCc2c(sc3nc(SCC(=O)NCc4ccco4)n(-c4ccccc4)c(=O)c23)C1 (stereo unspecified),–,"inconclusive: 0.891 µM [activator, full curve, poor fit]"
Cc1cccc(-c2n[nH]c(=S)n2C)c1,–,"inconclusive: 15.8 µM [inhibitor, partial curve, poor fit]"
CCOc1ccc(CN(C)Cc2cc(=O)oc3cc(C)c(Cl)cc23)cc1,–,"inconclusive: 10 µM [activator, single point]"
Cc1ccc(/C=C/c2nc3ccccc3c(=O)[nH]2)cc1,–,active: 2.51 µM
CCOc1ccc(-c2cc(C(=O)NCCCn3ccnc3)c3cc(Br)ccc3n2)cc1,–,"inconclusive: 35.5 µM [inhibitor, single point]"

SMILES,"activity change, negative = inhibition",Potency
C=CCn1c(N)c(S(=O)(=O)c2cccs2)c2nc3ccccc3nc21,–,"inconclusive: 0.398 µM [activator, single point]"
COc1ccc2ccc(O)c(CN(C)CC(=O)Nc3ccccc3C(F)(F)F)c2c1,–,"inconclusive: 17.8 µM [inhibitor, single point]"
CCO[C@@H]1OC(C(=O)N2CCN(Cc3ccccc3)CC2)=C[C@H](c2cn(C(C)=O)c3ccccc23)[C@H]1CCCO,–,"inconclusive: 15.8 µM [activator, single point]"
COc1ccc(N2CCN(c3nc4ccccc4n3CC(=O)c3ccccc3)CC2)cc1,–,"inconclusive: 2.51 µM [inhibitor, partial curve]"
CCCn1c(-c2ccc(F)cc2)nc2c(NCCN(C(C)C)C(C)C)nc(C)nc21,inactive: -29.5%,–
Cc1[nH][nH]c(=O)c1C(c1ccc(-c2ccc(F)cc2)o1)c1c(C)[nH][nH]c1=O,–,"inconclusive: 35.5 µM [inhibitor, single point]"
CC(C)c1ccc2c(c1)C1Cc3ccccc3C1N2 (stereo unspecified),–,"inconclusive: 14.1 µM [activator, partial curve]"
O=c1[nH][nH]c(-c2ccccc2O)c1C(C[N+](=O)[O-])c1cccc(Cl)c1 (stereo unspecified),–,"inconclusive: 35.5 µM [inhibitor, single point]"
CN(CC(=O)NCCCc1ccccc1)S(=O)(=O)c1ccc(Br)cc1,–,"inconclusive: 20 µM [activator, single point]"
CCN1c2ccccc2-c2nc3ccccc3n2C1c1cccnc1 (stereo unspecified),–,"inconclusive: 14.1 µM [inhibitor, single point]"
Cc1noc(NS(=O)(=O)c2ccc(NC(=O)c3oc4ccc(Cl)cc4c3C)cc2)c1C,–,"inconclusive: 15.8 µM [activator, partial curve]"
CCOc1ccc(S(=O)(=O)N2CCC(C(=O)N3CCc4ccccc4C3)CC2)cc1,inactive: 41.6%,–
O=C(NCc1ccccc1)c1ccc2c(c1)OCCO2,–,"inconclusive: 17.8 µM [activator, single point]"
COc1ccc(C(C)NC(=O)c2ccc(Br)cc2)cc1OC (stereo unspecified),–,"inconclusive: 10 µM [activator, partial curve, poor fit]"
COC(=O)C1=C(CSCc2ccccc2)NC(=O)NC1c1cc(C)ccc1C (stereo unspecified),–,"inconclusive: 22.4 µM [activator, single point]"
CC(C)CC(=O)N1CCN(Cc2ccc(C(F)(F)F)cc2)CC1,–,"inconclusive: 35.5 µM [activator, single point]"
O=C(CS(=O)(=O)Cc1ccccc1)Nc1ccc(S(=O)(=O)N2CCCCCC2)cc1,–,"inconclusive: 11.2 µM [activator, single point]"
COc1cccc(/C=N/n2c(-c3ccco3)nc3ccccc3c2=O)c1,–,"inconclusive: 0.0045 µM [activator, full curve, poor fit]"
CCN(CC)S(=O)(=O)c1ccc(NC(=O)c2ccc(CN3CCOCC3)cc2)cc1,–,"inconclusive: 5.62 µM [activator, single point]"
COc1ccc(CNC(=O)c2ccc3ccccc3n2)cc1OC,–,"inconclusive: 11.2 µM [activator, partial curve]"
NC(=O)/C=C/C(=O)Nc1ccc(Cl)cc1,–,active: 3.16 µM
COc1ccc(C(=O)Cn2nnc(-c3ccccc3F)n2)cc1,–,"inconclusive: 3.98 µM [activator, partial curve]"
NC(=O)COC(=O)c1ccc(Cl)c(S(=O)(=O)N(Cc2ccccc2)c2ccc(Cl)cc2)c1,inactive: -1.94%,–

# From PubChem BioAssay AID2551 (National Center for Advancing Translational Sciences (NCATS), 2010)
